The supplement of paper PMC10470496
Structures can show the parent of a compound that is named as a salt. This is one part of the list. Many values rest on one well or one pass, so single values are uncertain.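 Three clinical Candida auris isolates (clades III, IV and I) from the CDC resistance isolate bank were grown in RPMI-1640 at 35°C. Growth was background-corrected OD600 relative to same-plate vehicle-only wells. Hits required over 50% inhibition in at least two strains and a plate-corrected B-score above 0.1.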

Test system: C. auris AR-387
Assay: growth relative to vehicle control (OD600 ratio) (fraction); higher = less inhibition
Details: 1 µM; 24 h

Question: How did the growth turn out when `Cc1cc(NS(=O)(=O)c2ccc(N)cc2)no1` [Sulfamethoxazole] was run?
Answer: 0.97

Question: With `NCc1ccc(S(N)(=O)=O)cc1` [Mafenide hydrochloride] as the compound, how does the growth read?
Answer: 1.62

Question: With `O=c1[nH]cnc2c1ncn2[C@@H]1O[C@H](CO)[C@@H](O)[C@H]1O` [Inosine] as the compound, how does the growth read?
Answer: 1.23

Question: `Cc1nc(-c2ccc(OCC(C)C)c(C#N)c2)sc1C(=O)O` [Febuxostat] was tested. Which growth did it give?
Answer: 1.2

Question: `CCc1c2c(nc3ccc(OC(=O)N4CCC(N5CCCCC5)CC4)cc13)-c1cc3c(c(=O)n1C2)COC(=O)[C@]3(O)CC` [Irinotecan HCl Trihydrate] was tested. Which growth did it give?
Answer: 0.72

Question: With `C[N+](C)(C)CCOC(N)=O` [Carbachol] as the compound, how does the growth read?
Answer: 0.98

Question: With `NCCC(O)(P(=O)(O)O)P(=O)(O)O` [Pamidronate Disodium] as the compound, how does the growth read?
Answer: 0.84

Question: Which growth does the source give for `Clc1ccc(COC(Cn2ccnc2)c2ccc(Cl)cc2Cl)c(Cl)c1` (centres undefined) [Miconazole] here?
Answer: 0.06

Question: `CC(C)(C)c1nc(-c2cccc(NS(=O)(=O)c3c(F)cccc3F)c2F)c(-c2ccnc(N)n2)s1` was tested. Which growth did it give?
Answer: 0.72

Question: `CCCc1nc(C(C)(C)O)c(C(=O)OCc2oc(=O)oc2C)n1Cc1ccc(-c2ccccc2-c2nnn[nH]2)cc1` [Olmesartan Medoxomil] was tested. Which growth did it give?
Answer: 1.17

Question: With `Cc1ccsc1C(=CCCN1CCC[C@@H](C(=O)O)C1)c1sccc1C` [Tiagabine] as the compound, how does the growth read?
Answer: 1

Question: `NS(=O)(=O)c1cc2c(cc1Cl)N=C(CSCc1ccccc1)NS2(=O)=O` [Benzthiazide] was tested. Which growth did it give?
Answer: 0.91

Question: Which growth does the source give for `Cc1nc(C(=O)NCC(=O)O)c(O)c2ccc(Oc3ccccc3)cc12` [Roxadustat (FG-4592)] here?
Answer: 0.73

Question: With `C=C1CC[C@H](O)C/C1=C/C=C1\CCC[C@]2(C)[C@@H]([C@H](C)CCCC(C)C)CC[C@@H]12` [Vitamin D3] as the compound, how does the growth read?
Answer: 0.84

Question: How did the growth turn out when `CCOc1cc(N)c(Cl)cc1C(=O)NCC1CN(Cc2ccc(F)cc2)CCO1` (centres undefined) [Mosapride Citrate] was run?
Answer: 0.69

Question: How did the growth turn out when `CC(CN(C)C)CN1c2ccccc2CCc2ccccc21` (centres undefined) [Trimipramine Maleate] was run?
Answer: 0.89

Question: For `Cc1ccc(-c2cc(C(F)(F)F)nn2-c2ccc(S(N)(=O)=O)cc2)cc1` [Celecoxib], which growth is on record?
Answer: 0.93

Question: For `Cc1cc(C2CCCCC2)n(O)c(=O)c1` [Ciclopirox ethanolamine], which growth is on record?
Answer: 0.04

Question: Which growth does the source give for `Cc1cnc(NC(=O)C2=C(O)c3ccccc3S(=O)(=O)N2C)s1` [Meloxicam] here?
Answer: 1.13

Question: With `O=c1oc2c(O)c(O)cc3c(=O)oc4c(O)c(O)cc1c4c23` [Ellagic acid] as the compound, how does the growth read?
Answer: 1.16

Question: Which growth does the source give for `Nc1c(CC(=O)O)cccc1C(=O)c1ccc(Br)cc1` [Bromfenac Sodium] here?
Answer: 0.86

Question: With `O=C(O)c1cc(-c2ccccc2)nc2ccccc12` [Cinchophen] as the compound, how does the growth read?
Answer: 0.77

Question: For `CC1(C)S[C@@H]2[C@H](NC(=O)COc3ccccc3)C(=O)N2[C@H]1C(=O)O` [Penicillin V potassium salt], which growth is on record?
Answer: 1.07

Question: For `CN(C)C(=O)COC(=O)Cc1ccc(OC(=O)c2ccc(NC(=N)N)cc2)cc1` [Camostat Mesilate], which growth is on record?
Answer: 0.98

Question: With `CCOC(=O)c1ccc(N)cc1` [Benzocaine] as the compound, how does the growth read?
Answer: 0.74

Question: How did the growth turn out when `COc1ccc2[nH]c([S+]([O-])Cc3ncc(C)c(OC)c3C)nc2c1` (centres undefined) [Omeprazole] was run?
Answer: 1.17

Question: For `Nc1nc(NC2CC2)c2ncn([C@H]3C=C[C@@H](CO)C3)c2n1` [Abacavir sulfate], which growth is on record?
Answer: 0.84

Question: How did the growth turn out when `CCc1ccc(Cc2ccc3c(c2)[C@]2(OC3)O[C@H](CO)[C@@H](O)[C@H](O)[C@H]2O)cc1` [Tofogliflozin(CSG 452)] was run?
Answer: 0.84

Question: `CC(=O)OCC(=O)NCCCOc1cccc(CN2CCCCC2)c1` [Roxatidine Acetate HCl] was tested. Which growth did it give?
Answer: 0.63

Question: With `CC(C)C[C@H](NC(=O)[C@@H](NC(=O)c1cccc(-c2ccccc2)n1)[C@@H](C)O)B(O)O` as the compound, how does the growth read?
Answer: 0.83

Question: With `NC(=O)c1ncn([C@@H]2O[C@H](CO)[C@@H](O)[C@H]2O)c1O` [Mizoribine] as the compound, how does the growth read?
Answer: 0.8

Question: With `CCN(CC)CC(=O)Nc1c(C)cccc1C` [Lidocaine hydrochloride] as the compound, how does the growth read?
Answer: 0.93

Question: For `C=C1c2cccc(O)c2C(=O)C2=C(O)[C@]3(O)C(=O)C(C(N)=O)=C(O)[C@@H](N(C)C)[C@@H]3[C@@H](O)[C@H]12` [Methacycline HCl], which growth is on record?
Answer: 1.05

Question: `CCCCN1CCCC[C@H]1C(=O)Nc1c(C)cccc1C` [Levobupivacaine HCl] was tested. Which growth did it give?
Answer: 1.31

Question: For `CCC[C@H](NC(=O)[C@@H]1[C@H]2CCC[C@H]2CN1C(=O)[C@@H](NC(=O)[C@@H](NC(=O)c1cnccn1)C1CCCCC1)C(C)(C)C)C(=O)C(=O)NC1CC1` [Telaprevir (VX-950)], which growth is on record?
Answer: 0.81

Question: For `C[C@H]1COc2c(N3CCN(C)CC3)c(F)cc3c(=O)c(C(=O)O)cn1c23` [Levofloxacin], which growth is on record?
Answer: 0.83

Question: For `CC(C)CN(C[C@@H](O)[C@H](Cc1ccccc1)NC(=O)O[C@H]1CO[C@H]2OCC[C@H]21)S(=O)(=O)c1ccc(N)cc1` [Darunavir Ethanolate], which growth is on record?
Answer: 0.7

Question: With `Oc1ccc(O)cc1` [Hydroquinone] as the compound, how does the growth read?
Answer: 0.97

Question: Which growth does the source give for `CCCCCCCCCCCCCCCC[N+](C)(C)C` [Cetrimonium Bromide (CTAB)] here?
Answer: 0.97
